Some entries share one result that the patent states for a list of compounds.
How the values were obtained:
[1] = molecular target: T1, human ERβ (ERβ-LBD) (Homo sapiens, UniProt Q92731); test: Binding assay 1: estrogen receptor SPA binding assay (3H-E2 displacement), ERβ; details: binding assay 1, ERβ over ERα
T1 construct: ERβ (ERβ-LBD, pET-N-AT #1, aa 255-530); made in house; host or cells: E. coli BL21 (DE3) pBirA
Procedure: Binding Assay 1: Estrogen Receptor Binding Assay
The estrogen receptor ligand binding assays are designed as scintillation proximity assays (SPA), employing the use of tritiated estradiol (^3H-E2) and recombinant expressed biotinylated estrogen receptor binding domains. The binding domains of human ERα (ERα-LBD, pET-N-AT #1, aa 301-595) and ERβ (ERβ-LBD, pET-N-AT #1, aa 255-530) proteins are produced in E. coli ((BL21, (DE3), pBirA)) at 22 C in 2×LB medium supplemented with 50 uM biotin. After 3 h of IPTG induction (0.55 mM), cells are harvested by centrifugation at 7300×g for 15 min and cell pellets stored frozen in −20 C. Extraction of ERα and ERβ are performed using 5 g of cells suspended in 50 mL of extraction buffer (50 mM Trig, pH 8.0, 100 mM KCl, 4 mM EDTA, 4 mM DDT and 0.1 mM PMSF). The cell suspension is run twice through a Microfluidizer M-110L (Microfluidics) and centrifuged at 15,000×g for 60 min. The supernatant is aliquoted and stored in −70 C.
Dilute ERα-LBD or ERβ-LBD extracts in assay buffer (18 mM K2HPO4, 2 mM KH2PO4, 20 mM NasMoO4, 1 mM EDTA, 1 mM TCEP) 1:676 and 1:517 for alpha and beta respectively. The diluted receptor concentrations should be 900 fmol/L. Preincubate the extracts with streptavidin coated polyvinyltoluene SPA beads (RPNQ0007, GE Healthcare) at a concentration of 0.43 mg/mL for 1 hr at room temperature.
Test compounds are evaluated over a range of concentrations from 157 μM to 37.5 pM. The test compound stock solutions should be made in 100% DMSO at 5× of the final concentration desired for testing in the assay. The amount of DMSO in the test wells of the 384 well plate will be 20%. Add 18 μl aliquots of test compounds to the assay plates followed by 35 μl of the preincubated receptor/SPA bead mix and finally add 35 μl of 3 nM ^3H-E2. Cover the plates with a plastic sealer, centrifuge for 1 minute at 1000 rpm and equilibrate over night on a shaker at room temperature. The following morning, centrifuge the plates 5 minutes at 2000 rpm and measure on a plate scintillation counter e.g. a PerkinElmer Microbeta 1450 Trilux.
For compounds able to displace 3[H]-E2 from the receptor an IC50-value (the concentration required to inhibit 50% of the binding of 3[H]-E2) is determined by a non-linear four parameter logistic model; b=((bmax−bmin)/(1+(I/IC50)S))+bmin I is added concentration of binding inhibitor, IC50 is the concentration of inhibitor at half maximal binding and S is a slope factor. The Microbeta-instrument generates the mean cpm (counts per minute) value/minute and corrects for individual variations between the detectors thus generating corrected cpm values.

By UniProt entry, the sequences of proteins in these tests, tags left out. Residues count along the entry.
UniProt Q92731, 255-530: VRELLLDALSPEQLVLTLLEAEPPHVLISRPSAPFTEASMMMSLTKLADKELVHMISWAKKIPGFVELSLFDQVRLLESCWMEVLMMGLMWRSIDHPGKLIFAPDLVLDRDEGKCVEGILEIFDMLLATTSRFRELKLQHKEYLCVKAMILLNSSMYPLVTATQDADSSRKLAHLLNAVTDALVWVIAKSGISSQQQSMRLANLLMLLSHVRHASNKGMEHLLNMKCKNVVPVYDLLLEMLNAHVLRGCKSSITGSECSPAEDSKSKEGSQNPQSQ
UniProt Q92731, whole entry: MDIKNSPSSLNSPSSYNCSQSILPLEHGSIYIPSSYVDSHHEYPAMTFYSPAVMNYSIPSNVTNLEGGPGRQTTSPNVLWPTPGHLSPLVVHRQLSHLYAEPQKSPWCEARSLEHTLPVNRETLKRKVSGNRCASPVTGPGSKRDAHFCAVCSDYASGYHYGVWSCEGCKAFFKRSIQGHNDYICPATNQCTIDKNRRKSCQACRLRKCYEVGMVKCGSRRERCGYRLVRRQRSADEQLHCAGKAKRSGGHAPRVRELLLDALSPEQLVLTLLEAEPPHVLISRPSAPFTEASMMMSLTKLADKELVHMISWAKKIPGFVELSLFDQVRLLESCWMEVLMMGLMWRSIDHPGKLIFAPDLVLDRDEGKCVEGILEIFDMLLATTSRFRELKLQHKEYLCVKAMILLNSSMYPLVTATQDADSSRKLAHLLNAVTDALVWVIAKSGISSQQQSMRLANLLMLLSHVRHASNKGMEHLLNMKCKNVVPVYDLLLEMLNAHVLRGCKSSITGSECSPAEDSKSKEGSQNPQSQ

[2] = molecular target: T2, human estrogen receptor beta (hERβ 530) (Homo sapiens, UniProt Q92731); test: Transactivation assay 2: HEK293 cells stably transfected with pERE2-ALP and human estrogen receptor beta; assay type: cell-based; details: transactivation assays 1 and 2, ERβ over ERα
T2 construct: expressed in transfected cells
Procedure: Transactivation Assay 2: Transactivation Assay in Human Embryonic Kidney 293 Cells Stably Transfected with pERE2-ALP and Human Estrogen Receptor Beta
Generation of stable HEK293 cell lines (CRL-1573; American Type Culture Collection) expressing the reporter vector pERE2-ALP and human estrogen receptor beta (hERβ 530) have been described (Mol Pharmacol 1998, 54, 105-112; Endocrinology 2002, 143, 1558-1561),
The cells were seeded in 384-well plates at 12 500 cells per well in Ham's F12 Coon's modification (without phenol red) with 10% dextran-coated charcoal treated (DCC) fetal bovine serum (FBS), 2 mM L-glutamine and 50 μg/ml gentamicin. After 24 h incubation (37° C., 5% CO2) the seeding medium was discarded and replaced with 20 μl Ham's F12 Coon's modification (without phenol red) with 1.5 DCC-FCS, 2 mM L-glutamine and supplemented with 100 U/ml penicillin and 100 μg/ml streptomycin. The selected compounds were added to the wells in 12 concentrations ranging from […] to 33 μM. The compounds were dissolved in 100% dimethylsulfoxide (DMSO) and the final concentration of DMSO in the assay was 0.1%. After 72 h incubation (37° C., 5% CO2) the medium was assayed for ALP activity by a chemiluminescence assay; a 10 μl aliquot of the conditioned medium was mixed with 100 μl assay buffer (0.1 M diethanolamine, 1 mM MgCl2) and 0.5 mM disodium 3-(4-methoxyspiro 1,2-dioxetane-3,2′-(5′-chloro)-tricyclo[3.3.1.13,7]decan-4-yl)phenyl phosphate (CSPD) (Tropix, Applied Biosystems) and incubated for 20 min at 37° C. and 15 min at room temperature before measurement of the chemiluminescent signal (one second per well) in a Wallac Microbeta Trilux 1450-028 (PerkinElmer). The ALP activity expressed in LCPS is directly proportional to the level of ALP expressed by the cells. The half maximal effective concentrations of the test compounds (EC50) were calculated from the curves fitted to the concentration-response data with a four parameter logistic model in XLfit software version 2.0 (IDBS) or later.

| Structure (SMILES) | selectivity for the estrogen receptor β-subtype over the α-subtype in the binding assay [1] | selectivity for the estrogen receptor β-subtype over the α-subtype in the transactivation assays [2] |
| --- | --- | --- |
| N#Cc1c(-c2ccsc2)n(-c2ccc(O)cc2)c2ccccc12 [Example 2, 1-(4-Hydroxy-phenyl)-2-thiophen-3-yl-1H-indole-3-carbonitrile] | ≥ 50 |  |
| N#Cc1c(-n2cccc2)n(-c2ccc(O)cc2)c2ccccc12 [Example 4, 1-(4-Hydroxy-phenyl)-2-pyrrol-1-yl-1H-indole-3-carbonitrile] | ≥ 50 |  |
| CN(C)c1c(C#N)c2ccccc2n1-c1ccc(O)cc1 [Example 5, 2-Dimethylamino-1-(4-hydroxy-phenyl)-1H-indole-3-carbonitrile] | ≥ 50 |  |
| Cc1noc(C)c1-c1c(/C(N)=N/O)c2ccccc2n1-c1ccc(O)cc1 [Example 11, (Z)-2-(3,5-dimethylisoxazol-4-yl)-N′-hydroxy-1-(4-hydroxyphenyl)-1H-indole-3-carboximidamide] | ≥ 50 | ≥ 50 |
| Cc1noc(C)c1-c1c(/C(N)=N/O)c2cccc(F)c2n1-c1ccc(O)cc1 [Example 14, (Z)-2-(3,5-Dimethylisoxazol-4-yl)-7-fluoro-N′-hydroxy-1-(4-hydroxyphenyl)-1H-indole-3-carboximidamide] |  | ≥ 50 |
| Cc1noc(C)c1-c1c(Br)c2ccccc2n1-c1ccc(O)cc1 [Example 23, 4-[3-bromo-2-(3,5-dimethylisoxazol-4-yl)-1H-indole-1-yl]phenol] | ≥ 50 |  |
| CC(C)=Cc1c(C#N)c2ccccc2n1-c1ccc(O)cc1 [Example 39, 2-(Isobut-1-enyl)-1-(4-hydroxyphenyl)-1H-indole-3-carbonitrile] | ≥ 50 |  |
| CCc1onc(C)c1-c1c(/C(N)=N/O)c2ccccc2n1-c1ccc(O)cc1 [Example 41, (Z)-2-(5-Ethyl-3-methylisoxazol-4-yl)-N′-hydroxy-1-(4-hydroxyphenyl)-1H-indole-3-carboximidamide] |  | ≥ 50 |
| Cc1noc(C)c1-c1c(-c2ccccc2)c2ccccc2n1-c1ccc(O)cc1 [Example 42, 4-(2-(3,5-dimethylisoxazol-4-yl)-3-phenyl-1H-indol-1-yl)phenol] |  | ≥ 50 |
| Cc1noc(C)c1-c1c(Cl)c2ccccc2n1-c1ccc(O)cc1 [Example 43, 4-(3-chloro-2-(3,5-dimethylisoxazol-4-yl)-1H-indol-1-yl)phenol] | ≥ 50 |  |
| Cc1noc(C)c1-c1c(S(N)(=O)=O)c2ccccc2n1-c1ccc(O)cc1 [Example 44, 2-(3,5-dimethylisoxazol-4-yl)-1-(4-hydroxyphenyl)-1H-indole-3-sulfonamide] |  | ≥ 50 |
| Cc1noc(C)c1-c1c(C#N)c2ccccc2n1-c1ccc(O)cc1 [Example 51, 2-(3,5-Dimethyl-isoxazol-4-yl)-1-(4-hydroxy-phenyl)-1H-indole-3-carbonitrile] | ≥ 50 |  |
| Cn1cccc1-c1c(C#N)c2ccccc2n1-c1ccc(O)cc1 [Example 53, 1-(4-Hydroxy-phenyl)-2-(1-methyl-1H-pyrrol-2-yl)-1H-indole-3-carbonitrile] | ≥ 50 |  |
| C/C=C\c1c(C#N)c2ccccc2n1-c1ccc(O)cc1 [Example 68, 1-(4-Hydroxy-phenyl)-2-((Z)-propenyl)-1H-indole-3-carbonitrile] | ≥ 50 |  |
| C/C=C(/C)c1c(C#N)c2ccccc2n1-c1ccc(O)cc1 [Example 70, 1-(4-Hydroxy-phenyl)-2-((Z)-1-methyl-propenyl)-1H-indole-3-carbonitrile] | ≥ 50 |  |
| Cc1cccn1-c1c(C#N)c2ccccc2n1-c1ccc(O)cc1 [Example 95, 1-(4-Hydroxy-phenyl)-2-(2-methyl-pyrrol-1-yl)-1H-indole-3-carbonitrile] | ≥ 50 |  |

The next lines start with the values.

| selectivity for the estrogen receptor β-subtype over the α-subtype in the binding assay [1] | selectivity for the estrogen receptor β-subtype over the α-subtype in the transactivation assays [2] | Structure (SMILES) |
| --- | --- | --- |
| ≥ 50 |  | Cc1noc(C)c1-c1c(C#N)c2ccccc2n1-c1ccc(O)cc1F [Example 133, 2-(3,5-Dimethyl-isoxazol-4-yl)-1-(2-fluoro-4-hydroxy-phenyl)-1H-indole-3-carbonitrile] |
| ≥ 50 |  | C/C=C/c1c(C#N)c2ccccc2n1-c1ccc(O)c(F)c1 [Example 134, 1-(3-Fluoro-4-hydroxy-phenyl)-2-((E)-propenyl)-1H-indole-3-carbonitrile] |
| ≥ 50 |  | N#Cc1c(-n2cccc2)n(-c2ccc(O)c(F)c2)c2ccccc12 [Example 143, 1-(3-Fluoro-4-hydroxy-phenyl)-2-pyrrol-1-yl-1H-indole-3-carbonitrile] |
| ≥ 50 |  | CC(C)=Cc1c(C#N)c2ccccc2n1-c1ccc(O)c(F)c1 [Example 146, 1-(3-Fluoro-4-hydroxy-phenyl)-2-(2-methyl-prop-1-enyl)-1H-indole-3-carbonitrile] |
| ≥ 50 |  | Cc1cccn1-c1c(/C(N)=N/O)c2ccccc2n1-c1ccc(O)cc1 [Example 188, (Z)-N′-hydroxy-1-(4-hydroxyphenyl)-2-(2-methyl-1H-pyrrol-1-yl)-1H-indole-3-carboximidamide] |
| ≥ 50 |  | C/C=C(/C)c1c(/C(N)=N/O)c2ccccc2n1-c1ccc(O)cc1 [Example 191, (Z)-2-((Z)-but-2-en-2-yl)-N′-hydroxy-1-(4-hydroxyphenyl)-1H-indole-3-carboximidamide] |
| ≥ 50 |  | N#Cc1c(-n2cccc2)n(-c2ccc(O)cc2)c2cccc(F)c12 [Example 213, 4-Fluoro-1-(4-hydroxy-phenyl)-2-pyrrol-1-yl-1H-indole-3-carbonitrile] |
| ≥ 50 |  | Cc1noc(C)c1-c1c(C#N)c2c(F)cccc2n1-c1ccc(O)cc1 [Example 215, 2-(3,5-Dimethyl-isoxazol-4-yl)-4-fluoro-1-(4-hydroxy-phenyl)-1H-indole-3-carbonitrile] |
| ≥ 50 |  | Cc1noc(C)c1-c1c(C#N)c2c(Cl)cccc2n1-c1ccc(O)cc1 [Example 224, 4-Chloro-2-(3,5-dimethyl-isoxazol-4-yl)-1-(4-hydroxy-phenyl)-1H-indole-3-carbonitrile] |

— patent publication US8653072B2, “Estrogen receptor ligands” (Karo Bio AB, priority 2008, dated 2014)
